Entries after “also recorded” stand apart in the source; their conditions may differ. Not every detail of the peptide structures is certain; ends, links or a residue may be inferred.
Columns and labels:
P. aeruginosa = assay: Skin scarification (abscess) infection mouse model; type: in vivo; settings: single dose 16 μmol L^−1, topical, one day post-infection
Source text: Despite these therapeutic properties, mast-MO retained some cytotoxicity towards human cells at concentrations immediately above its antimicrobial and immunomodulatory activities hindering its use as a potential therapy in humans. FIG. 6B pertains to design of mast-MO derivatives through permutation of its FLPII motif. FIG. 6C depicts cytotoxic activity of mast-MO and its permutation variants against human embryonic kidney cells (i.e., HEK293). FIG. 6D provides a schematic of the experimental design. Briefly, the back of mice was shaved, and an abrasion was generated to damage the stratum corneum and the upper layer of the epidermis. Subsequently, an aliquot of […] containing 5×10^7 CFU/20 μL of P. aeruginosa in PBS was inoculated over each defined area. One day post-infection, peptides (16 μmol L^−1) were administered to the infected area. […] Six animals per group were euthanized and the area of scarified skin was excised two days post-infection, homogenized using a bead beater for 20 min (25 Hz), and serially diluted for CFU quantification (statistical significance was determined using two-way ANOVA followed by Dunnett's test, ***p<0.001). […]
Skin abscess infection mouse model. […] Animals were euthanized and the area of scarified skin was excised two- and four-days post-infection, homogenized using a bead beater for 20 minutes (25 Hz), and serially diluted for CFU quantification. […]

[1] = system: 8 clinically relevant Gram-negative bacterial strains; assay: Cytoplasmic membrane depolarization, DiSC3(5) assay; type: cell-based; settings: 20 μmol L^−1
S. aureus MRSA ATCC33591 = assay: Systemic sepsis infection mouse model, MRSA; type: in vivo; settings: 10 mg Kg^−1 i.p.
Description: (§1) FIG. 5A-5I pertains to a study of the anti-infective activity of mast-MO against Gram-negative and Gram-positive pathogens in a lethal sepsis infection model. In FIG. 5A mice were infected with bacteria, treated with each peptide or antibiotic and monitored for 8 days. Survival and cell counts after 24 h, respectively, are shown for E. coli ATCC8739 (2×10^4 CFU/mL inoculum) FIG. 5B and FIG. 5C, S. aureus ATCC29213 (2×10^9 CFU/mL inoculum) FIG. 5D and FIG. 5E, E. coli 1812446 (KPC-positive) (2×10^4 CFU inoculum) FIG. 5F and FIG. 5G, and S. aureus (MRSA) ATCC33591 (2×10^9 CFU inoculum) FIG. 5H and FIG. 5I. Mice were treated intraperitoneally (i.p.) with 1, 5 and 10 mg Kg^−1 of mast-L, mast-MO or 10 mg Kg^−1 of the antibiotics gentamicin and imipenem. PBS was used as a control for the untreated group of mice. Treatments were administered 3 h post-infection. Data are expressed as the mean±standard deviation. Statistical analysis was performed using Bonferroni test. […], **p<0.01, ***p<0.001 compared to the untreated control.
(§2) Systemic bacterial infection mouse model. […] Animals were humanely killed 24 h after bacterial administration.

E. coli ATCC0157 biofilm = assay: Antibiofilm flow cell assay, E. coli; type: cell-based; settings: Mast-MO 4 μg mL^−1
[2] = system: S. aureus ATCC33591 biofilm; assay: Antibiofilm flow cell assay, S. aureus; type: cell-based; settings: Mast-MO 4 μg mL^−1
[3] = system: E. coli and S. aureus strains; assay: Systemic infection experiments, summary over all strains; settings: 10 mg Kg^−1
IL-12, TNFα, IL-6 = assay: Cytokines in peritoneal fluid of infected mice (ELISA); type: in vivo, C57BL/6 mice; settings: tracked for 48 h; mast-MO 10 mg Kg^−1, mast-L 5 mg Kg^−1
Description: […] PBS and imipenem (10 mg Kg^−1) were used as negative and positive controls, respectively. Data were expressed as mean±standard deviation. Statistical analysis was performed using Bonferroni test. ***p<0.001 as significant compared to the control.
(§3) To test whether the FLPII motif within the mast-MO sequence led to increased immunomodulatory and chemotactic properties with respect to mast-L, ELISA experiments were performed using the peritoneal fluid collected from mice (FIG. 5a). C57BL/6 mice were infected with both Gram-negative and Gram-positive pathogens and administered either mast-L or mast-MO intraperitoneally. For mice infected with E. coli ATCC8739, we monitored the peritoneal cavity to detect and quantify the release and presence of several immune mediators (FIG. 4E). […] This effect was similar to the positive control group of mice treated with […] (TGA) (FIG. 4B). […] After 24 h, the leukocyte recruitment levels in mast-MO-treated mice dropped to ˜10^6, likely attributed to the resolution of the infection by the peptide (FIGS. 5B and 5C). […] We monitored, via ELISAs, the cytokine profiles present within the peritoneal cavity of mice infected with E. coli ATCC8739 and S. aureus ATCC29213 (FIGS. 4E and FIG. 4F, respectively) and treated with a single dose of peptide. […]

[4] = system: E. coli ATCC8739 and clinical isolate E. coli 1812446 (KPC-positive); assay: Systemic sepsis infection mouse model, E. coli strains; type: in vivo; settings: 5 and 10 mg Kg^−1 i.p., 3 h post-infection
Description: as §1, §2

S. aureus ATCC29213 = assay: Systemic sepsis infection mouse model, S. aureus ATCC29213; type: in vivo; settings: 10 mg Kg^−1 i.p.
Description: as §1, §2

leukocytes = assay: Leukocyte migration to the peritoneal cavity of mice infected with E. coli ATCC8739; type: in vivo, C57BL/6 mice
Description: as §3
Isolation of leukocytes from the peritoneal cavity of mice. Leukocyte migration into the peritoneal cavity of uninfected C57BL/6 mice treated with 10 mg Kg^−1 of peptides was evaluated to assess the chemotactic activity of the peptides, as previously described (11). […] Leukocyte counts present in the in peritoneal cavity of mice infected with E. coli ATCC 8739 were quantified. Animals infected and treated with peptides were euthanized over time (0.5-24 h) post-treatment, and a peritoneal lavage was carried out to quantify leukocyte numbers present in the peritoneal cavity (47). […] Total cell counts were quantified using a cell counter (Coulter AC T series analyzer), and differential cell counts were conducted on cytocentrifuge slides (Cytospin 3; Thermo Shandon) stained by the May-Grünwald-Giemsa (Rosenfeld) method. The results are expressed as the number of cells per cavity (48).

Structure (SMILES) | Anti-infective activity compared to parent peptide mast-MO (P. aeruginosa) | Depolarization of the cytoplasmic membrane [1] | Survival (S. aureus MRSA ATCC33591) [%] | Antibiofilm activity (E. coli ATCC0157 biofilm) | Antibiofilm activity [2] | Bacterial counts in all systemic infection experiments [3] | Pro-inflammatory cytokines IL-12, TNFα and IL-6 in the peritoneal cavity (IL-12, TNFα, IL-6) | Survival [4] [%] | Protection from infection, in words (S. aureus ATCC29213) | Leukocyte recruitment, peak (leukocytes; 10 mg Kg^−1, 3 h post-infection) | Leukocyte recruitment levels (leukocytes; 10 mg Kg^−1, after 24 h) | Leukocyte recruitment over the time period tested, in words (leukocytes; mast-MO 10 mg Kg^−1, mast-L 5 mg Kg^−1)
CC[C@H](C)[C@H](N)C(=O)N[C@@H](Cc1ccccc1)C(=O)N[C@@H](CC(C)C)C(=O)N1CCC[C@H]1C(=O)N[C@H](C(=O)N[C@H](C(=O)N[C@@H](CC(N)=O)C(=O)N[C@@H](CC(C)C)C(=O)N[C@@H](CCCCN)C(=O)N[C@@H](C)C(=O)N[C@@H](CC(C)C)C(=O)N[C@@H](C)C(=O)N[C@@H](C)C(=O)N[C@@H](CC(C)C)C(=O)N[C@@H](C)C(=O)N[C@@H](CCCCN)C(=O)N[C@@H](CCCCN)C(=O)N[C@H](C(=O)N[C@@H](CC(C)C)C(N)=O)[C@@H](C)CC)[C@@H](C)CC)[C@@H](C)CC [Analog 15, IFLPIINLKALAALAKKIL] | increased anti-infective activity |  |  |  |  |  |  |  |  |  |  | 
CC[C@H](C)[C@H](NC(=O)[C@H](CCCCN)NC(=O)[C@H](CCCCN)NC(=O)[C@H](C)NC(=O)[C@H](CC(C)C)NC(=O)[C@H](C)NC(=O)[C@H](C)NC(=O)[C@H](CC(C)C)NC(=O)[C@H](C)NC(=O)[C@H](CCCCN)NC(=O)[C@H](CC(C)C)NC(=O)[C@H](CC(N)=O)NC(=O)[C@@H](NC(=O)[C@H](CC(C)C)NC(=O)[C@@H](NC(=O)[C@@H](NC(=O)[C@@H]1CCCN1C(=O)[C@@H](N)Cc1ccccc1)[C@@H](C)CC)[C@@H](C)CC)[C@@H](C)CC)C(=O)N[C@@H](CC(C)C)C(N)=O [Analog 49, FPIILINLKALAALAKKIL] | increased anti-infective activity |  |  |  |  |  |  |  |  |  |  | 
CC[C@H](C)[C@H](NC(=O)[C@H](CCCCN)NC(=O)[C@H](CCCCN)NC(=O)[C@H](C)NC(=O)[C@H](CC(C)C)NC(=O)[C@H](C)NC(=O)[C@H](C)NC(=O)[C@H](CC(C)C)NC(=O)[C@H](C)NC(=O)[C@H](CCCCN)NC(=O)[C@H](CC(C)C)NC(=O)[C@H](CC(N)=O)NC(=O)[C@@H](NC(=O)[C@@H](NC(=O)[C@@H](NC(=O)[C@@H]1CCCN1C(=O)[C@H](CC(C)C)NC(=O)[C@@H](N)Cc1ccccc1)[C@@H](C)CC)[C@@H](C)CC)[C@@H](C)CC)C(=O)N[C@@H](CC(C)C)C(N)=O [Mast-MO, FLPIIINLKALAALAKKIL] |  | only mildly depolarized | 80 | high inhibition of biofilm formation; also recorded: increased antibiofilm properties | high inhibition of biofilm formation; also recorded: increased antibiofilm properties | significant reduction of bacterial counts | repressed | 80 | completely protected | ~10^8 cells per cavity | ~10^6 cells per cavity | stimulated recruitment at all time points

Source: patent US12116387B2, “Antimicrobial peptides” (priority 2021, dated 2024)
